# Data as given in PMC8429893, “CTP regulates membrane-binding activity of the nucleoid occlusion protein Noc” (Molecular Cell, 2021).
# No constants are given. Whether binding was seen depends on the method and setting.
# Biological target: Geobacillus thermoleovorans NocΔCTD (Geobacillus thermoleovorans)
# Assay: crystal structure; G. thermoleovorans NocΔCTD, premixed with 1 mM CTP and 1 mM MgCl2 (no CTP in the density), 2.5 Å, space group P2(1)3, two copies per asymmetric unit; both purified
substance,measurement,value
Geobacillus thermoleovorans NocΔCTD (from UniProt A0ABF7PFW1 46-284) (domain or fragment),binding,no binding
